According to paper PMC11201989:
These are yes or no findings as the source states them, for the method shown. In cells and extracts the contact can be indirect. Some results given as binding are weak or reduced against the parent protein; the word gives no strength. Sequences can lack the tags named with a protein.

Chains of the proteins cited; added tags and fusions are not shown. Residues count along the entry.
UniProt Q9NZQ7, residues 19-290: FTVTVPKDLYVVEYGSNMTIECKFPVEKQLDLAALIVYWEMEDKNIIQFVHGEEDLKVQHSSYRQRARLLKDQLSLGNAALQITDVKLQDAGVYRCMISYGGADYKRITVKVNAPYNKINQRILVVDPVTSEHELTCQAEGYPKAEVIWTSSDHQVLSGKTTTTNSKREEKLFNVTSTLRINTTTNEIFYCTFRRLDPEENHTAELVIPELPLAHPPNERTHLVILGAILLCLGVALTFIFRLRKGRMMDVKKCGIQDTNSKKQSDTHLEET

Assays:
Test in all cases: co-IP; lysate of HEK293T cells (methods: HEK293) expressing GFP-PD-L1 or Myc-PC-2; lysis buffer 20 mM Tris-HCl pH 7.4, 150 mM NaCl, 10% glycerol, 1% Triton X-100; protein A agarose beads with anti-GFP, anti-Myc or anti-BBS5 antibody or isotype control, PBS with 5 mg/mL BSA, overnight at 4 °C; Western blot
[1] = biological target: T1, Myc-tagged PC-2 (polycystin 2) (UniProt Q13563)
T1 sequence: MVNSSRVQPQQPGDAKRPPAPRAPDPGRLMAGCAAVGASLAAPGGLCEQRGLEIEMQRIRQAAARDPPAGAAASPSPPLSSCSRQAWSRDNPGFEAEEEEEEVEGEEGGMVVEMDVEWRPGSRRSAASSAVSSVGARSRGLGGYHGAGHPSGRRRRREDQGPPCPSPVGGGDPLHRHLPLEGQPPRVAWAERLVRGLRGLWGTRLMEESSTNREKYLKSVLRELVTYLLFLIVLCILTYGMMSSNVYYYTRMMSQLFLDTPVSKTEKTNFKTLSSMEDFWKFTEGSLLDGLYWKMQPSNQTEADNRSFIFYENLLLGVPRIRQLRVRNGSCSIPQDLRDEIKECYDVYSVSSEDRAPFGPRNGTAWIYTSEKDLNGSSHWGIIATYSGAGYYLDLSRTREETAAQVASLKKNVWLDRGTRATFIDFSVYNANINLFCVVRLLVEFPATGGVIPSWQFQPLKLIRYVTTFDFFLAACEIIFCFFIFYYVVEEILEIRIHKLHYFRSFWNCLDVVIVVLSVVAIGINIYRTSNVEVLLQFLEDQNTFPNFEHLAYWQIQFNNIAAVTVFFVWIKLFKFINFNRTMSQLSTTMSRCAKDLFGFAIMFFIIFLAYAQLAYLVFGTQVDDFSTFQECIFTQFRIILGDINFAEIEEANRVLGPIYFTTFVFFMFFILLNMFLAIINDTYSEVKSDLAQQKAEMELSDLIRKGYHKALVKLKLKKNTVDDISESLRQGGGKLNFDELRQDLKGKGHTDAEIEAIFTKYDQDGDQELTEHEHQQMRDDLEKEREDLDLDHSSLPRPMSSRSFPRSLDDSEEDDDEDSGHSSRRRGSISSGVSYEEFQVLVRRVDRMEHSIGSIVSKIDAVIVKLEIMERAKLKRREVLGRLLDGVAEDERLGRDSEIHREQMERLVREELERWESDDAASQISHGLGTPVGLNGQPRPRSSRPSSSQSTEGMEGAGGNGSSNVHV

[2] = biological target: T2, BBS5 (human (endogenous in HEK293T)) (UniProt Q8N3I7)
T2 sequence: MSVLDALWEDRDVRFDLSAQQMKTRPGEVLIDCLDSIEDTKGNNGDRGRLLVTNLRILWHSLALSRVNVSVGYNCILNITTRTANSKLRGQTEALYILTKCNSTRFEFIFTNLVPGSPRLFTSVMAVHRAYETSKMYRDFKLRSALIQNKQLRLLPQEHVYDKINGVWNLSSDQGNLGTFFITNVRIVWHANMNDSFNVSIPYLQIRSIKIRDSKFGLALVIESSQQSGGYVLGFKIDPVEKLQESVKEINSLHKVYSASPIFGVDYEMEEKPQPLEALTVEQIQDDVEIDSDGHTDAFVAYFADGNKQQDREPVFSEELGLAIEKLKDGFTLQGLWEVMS

[3] = biological target: GFP-tagged PD-L1 (programmed death ligand 1) (UniProt Q9NZQ7)

Molecule | binding [1] | binding [2] | binding [3]
GFP-tagged PD-L1 (programmed death ligand 1) (from UniProt Q9NZQ7 19-290) | binds | binds | 
BBS5 (protein, UniProt Q8N3I7 1-341) MSVLDALWEDRDVRFDLSAQQMKTRPGEVLIDCLDSIEDTKGNNGDRGRLLVTNLRILWHSLALSRVNVSVGYNCILNITTRTANSKLRGQTEALYILTKCNSTRFEFIFTNLVPGSPRLFTSVMAVHRAYETSKMYRDFKLRSALIQNKQLRLLPQEHVYDKINGVWNLSSDQGNLGTFFITNVRIVWHANMNDSFNVSIPYLQIRSIKIRDSKFGLALVIESSQQSGGYVLGFKIDPVEKLQESVKEINSLHKVYSASPIFGVDYEMEEKPQPLEALTVEQIQDDVEIDSDGHTDAFVAYFADGNKQQDREPVFSEELGLAIEKLKDGFTLQGLWEVMS | binds |  | binds
PC-2 (polycystin 2), as found with GFP-PD-L1 in Figure 6D (protein, UniProt Q13563 1-968) MVNSSRVQPQQPGDAKRPPAPRAPDPGRLMAGCAAVGASLAAPGGLCEQRGLEIEMQRIRQAAARDPPAGAAASPSPPLSSCSRQAWSRDNPGFEAEEEEEEVEGEEGGMVVEMDVEWRPGSRRSAASSAVSSVGARSRGLGGYHGAGHPSGRRRRREDQGPPCPSPVGGGDPLHRHLPLEGQPPRVAWAERLVRGLRGLWGTRLMEESSTNREKYLKSVLRELVTYLLFLIVLCILTYGMMSSNVYYYTRMMSQLFLDTPVSKTEKTNFKTLSSMEDFWKFTEGSLLDGLYWKMQPSNQTEADNRSFIFYENLLLGVPRIRQLRVRNGSCSIPQDLRDEIKECYDVYSVSSEDRAPFGPRNGTAWIYTSEKDLNGSSHWGIIATYSGAGYYLDLSRTREETAAQVASLKKNVWLDRGTRATFIDFSVYNANINLFCVVRLLVEFPATGGVIPSWQFQPLKLIRYVTTFDFFLAACEIIFCFFIFYYVVEEILEIRIHKLHYFRSFWNCLDVVIVVLSVVAIGINIYRTSNVEVLLQFLEDQNTFPNFEHLAYWQIQFNNIAAVTVFFVWIKLFKFINFNRTMSQLSTTMSRCAKDLFGFAIMFFIIFLAYAQLAYLVFGTQVDDFSTFQECIFTQFRIILGDINFAEIEEANRVLGPIYFTTFVFFMFFILLNMFLAIINDTYSEVKSDLAQQKAEMELSDLIRKGYHKALVKLKLKKNTVDDISESLRQGGGKLNFDELRQDLKGKGHTDAEIEAIFTKYDQDGDQELTEHEHQQMRDDLEKEREDLDLDHSSLPRPMSSRSFPRSLDDSEEDDDEDSGHSSRRRGSISSGVSYEEFQVLVRRVDRMEHSIGSIVSKIDAVIVKLEIMERAKLKRREVLGRLLDGVAEDERLGRDSEIHREQMERLVREELERWESDDAASQISHGLGTPVGLNGQPRPRSSRPSSSQSTEGMEGAGGNGSSNVHV |  |  | binds
Myc-tagged PC-2 (polycystin 2) (protein, UniProt Q13563 1-968) MVNSSRVQPQQPGDAKRPPAPRAPDPGRLMAGCAAVGASLAAPGGLCEQRGLEIEMQRIRQAAARDPPAGAAASPSPPLSSCSRQAWSRDNPGFEAEEEEEEVEGEEGGMVVEMDVEWRPGSRRSAASSAVSSVGARSRGLGGYHGAGHPSGRRRRREDQGPPCPSPVGGGDPLHRHLPLEGQPPRVAWAERLVRGLRGLWGTRLMEESSTNREKYLKSVLRELVTYLLFLIVLCILTYGMMSSNVYYYTRMMSQLFLDTPVSKTEKTNFKTLSSMEDFWKFTEGSLLDGLYWKMQPSNQTEADNRSFIFYENLLLGVPRIRQLRVRNGSCSIPQDLRDEIKECYDVYSVSSEDRAPFGPRNGTAWIYTSEKDLNGSSHWGIIATYSGAGYYLDLSRTREETAAQVASLKKNVWLDRGTRATFIDFSVYNANINLFCVVRLLVEFPATGGVIPSWQFQPLKLIRYVTTFDFFLAACEIIFCFFIFYYVVEEILEIRIHKLHYFRSFWNCLDVVIVVLSVVAIGINIYRTSNVEVLLQFLEDQNTFPNFEHLAYWQIQFNNIAAVTVFFVWIKLFKFINFNRTMSQLSTTMSRCAKDLFGFAIMFFIIFLAYAQLAYLVFGTQVDDFSTFQECIFTQFRIILGDINFAEIEEANRVLGPIYFTTFVFFMFFILLNMFLAIINDTYSEVKSDLAQQKAEMELSDLIRKGYHKALVKLKLKKNTVDDISESLRQGGGKLNFDELRQDLKGKGHTDAEIEAIFTKYDQDGDQELTEHEHQQMRDDLEKEREDLDLDHSSLPRPMSSRSFPRSLDDSEEDDDEDSGHSSRRRGSISSGVSYEEFQVLVRRVDRMEHSIGSIVSKIDAVIVKLEIMERAKLKRREVLGRLLDGVAEDERLGRDSEIHREQMERLVREELERWESDDAASQISHGLGTPVGLNGQPRPRSSRPSSSQSTEGMEGAGGNGSSNVHV |  | binds | 
